{"source": "patent US20020031761A1", "about": "“Binding moieties for human parvovirus B19” (priority 1998, published 2002)", "note": "No constants are given. Whether binding was seen depends on the method and setting. Some binding calls cover weakened binding; strength is not graded here."}
{"molecular_target": "purified, recombinant parvovirus B19 capsid proteins VP1 and VP2 (VP1-VP2) (human parvovirus B19) (UniProt P07299)", "assay": "phage ELISA, constant phage against decreasing VP1-VP2 coat"}
{"binder": "FSCLWFPFCPD (peptide, not shown: large carriers)", "note": "[TN7 isolate A12]", "binding": "binds"}
{"binder": "LFCSFWYNCDA (peptide, not shown: large carriers)", "note": "[TN7 isolate D11]", "binding": "binds"}
{"binder": "FFCQYWYNCD (peptide, not shown: large carriers)", "note": "[TN7 isolate C11]", "binding": "binds"}
{"binder": "FCHLWWPFQCA (peptide, not shown: large carriers)", "note": "[TN9 isolate E03]", "binding": "binds"}
{"binder": "HFCHFWFGGCPH (peptide, not shown: large carriers)", "note": "[TN8 isolate D06]", "binding": "binds"}
{"binder": "AFCHFWFHGCDD (peptide, not shown: large carriers)", "note": "[TN8 isolate A05]", "binding": "binds"}
{"binder": "FFCALWPSCHH (peptide, not shown: large carriers)", "note": "[TN7 isolate B11]", "binding": "binds"}
{"binder": "LFCRFWYNCSA (peptide, not shown: large carriers)", "note": "[TN7 isolate H09]", "binding": "binds"}
{"binder": "LFCHFWYNCDF (peptide, not shown: large carriers)", "note": "[TN7 isolate B12]", "binding": "binds"}
{"binder": "FCWLWPAHSCH (peptide, not shown: large carriers)", "note": "[H03-TN9 phage isolate]", "binding": "binds"}
{"binder": "FCRFWYGCHP (peptide, not shown: large carriers)", "note": "[TN7 isolate E11]", "binding": "binds"}
{"binder": "FCWLWPSSDCF (peptide, not shown: large carriers)", "note": "[TN9 isolate D01]", "binding": "binds"}
{"binder": "FFCSFWHGGCDD (peptide, not shown: large carriers)", "note": "[A01-TN8 phage isolate]", "binding": "binds"}
{"binder": "LFCSFWYNCDD (peptide, not shown: large carriers)", "note": "[TN7 isolate F12]", "binding": "binds"}
{"binder": "FFCGFWHDCHP (peptide, not shown: large carriers)", "note": "[TN7 isolate A07]", "binding": "binds"}
{"binder": "FCQLWWPFQCA (peptide, not shown: large carriers)", "note": "[TN9 isolate A06]", "binding": "binds"}
{"binder": "LCPAHWQFWCD (peptide, not shown: large carriers)", "note": "[TN9 isolate F01]", "binding": "binds"}
